Experimental data as given in publication PMC10837206, “R-Spondin 2 governs Xenopus left-right body axis formation by establishing an FGF signaling gradient” (Nature Communications, 2024).
These are yes or no findings as the source states them, for the method shown. Binding calls can cover weak binding; strength is not graded here. Where a sequence is shown, tags or fusion partners need not be part of it.

Molecular target: T1, recombinant human FGFR4 Fc Chimera (human, UniProt P22455 22-369)
T1 construct: Fibroblast Growth Factor receptor 4 (FGFR4), human, extracellular domain; also called FGFR4^ECD; extracellular domain (ECD) of FGFR4; source: bought: R&D systems 685-FR and BioLegend 752502
T1 sequence (looked up): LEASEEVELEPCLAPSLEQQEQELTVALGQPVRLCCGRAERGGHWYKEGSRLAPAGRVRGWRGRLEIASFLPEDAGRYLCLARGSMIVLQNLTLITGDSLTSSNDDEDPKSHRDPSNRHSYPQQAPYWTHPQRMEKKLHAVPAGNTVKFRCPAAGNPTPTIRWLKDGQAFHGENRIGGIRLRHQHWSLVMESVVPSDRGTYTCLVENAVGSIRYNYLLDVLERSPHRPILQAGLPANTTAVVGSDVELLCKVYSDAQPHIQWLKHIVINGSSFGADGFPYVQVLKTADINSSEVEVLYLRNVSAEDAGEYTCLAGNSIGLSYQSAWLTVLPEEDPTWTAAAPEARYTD
Test: in vitro binding assay (solid phase, bound AP activity); 96-well plates coated with 2-4 ug ml^-1 Fc Chimera in bicarbonate coating buffer pH 9.6; 2 U ml^-1 RSPOs-AP overnight at 4 °C; AquaSpark AP substrate; only the target purified

binding: binds
Substance: human RSPO2 deletion mutant(s) lacking the FU1/2 domains, AP fusion (domain or fragment)
